Values from PubChem BioAssay AID1259268 (Sanger Institute, 2017).
This is one part, drawn at random, of 160 deposited reagents. 58 of all reagents (36%) count as active. 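Trametinib by itself roughly halved viability, making its arm harsher than the cetuximab and BYL719 arms.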 Reagents against one gene are numbered here. Further read-outs or replicates are left out here. Not stated in the record: the amount of reagent, the time to read-out.

Purpose: 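Kinase genes whose loss makes colon cancer cells more drug sensitive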 (follow-up of hits)
System: human SNUC1 colorectal cancer cells
Reagents: single siRNA against human genes
Challenge: anchor drugs added a day after transfection: BYL719 1 µM, cetuximab 5 µg/ml or trametinib 10 nM, versus DMSO vehicle
Measurement: 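Mean viability per well relative to non-targeting pool 2 siRNA, plus a synergy score weighing the joint knock-down and drug effect against each effect alone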
Reading the numbers: synergy score with trametinib and synergy score with cetuximab and synergy score with BYL719: higher = stronger synergy of knock-down with drug
Hit rule: 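Inactive when no drug gives a synergy score over 0.1, otherwise active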
Calls: active = synergy with at least one drug; inactive = no synergy with any drug

MAPKAPK2 (MAPK activated protein kinase 2) #1 — synergy score with trametinib: 0.0811; synergy score with cetuximab: 0.0199; synergy score with BYL719: -0.204; activity call: inactive
MAPKAPK2 (MAPK activated protein kinase 2) #2 — synergy score with trametinib: 0.211; synergy score with cetuximab: 0.0556; synergy score with BYL719: -0.000585; activity call: active
MAPKAPK2 (MAPK activated protein kinase 2) #3 — synergy score with trametinib: 0.0106; synergy score with cetuximab: -0.103; synergy score with BYL719: -0.19; activity call: inactive
MAPKAPK2 (MAPK activated protein kinase 2) #4 — synergy score with trametinib: -0.0376; synergy score with cetuximab: 0.098; synergy score with BYL719: -0.136; activity call: inactive

Continued, starting with the last 2 of the part before.
MAPKAPK2 (MAPK activated protein kinase 2) #3 — synergy score with trametinib: 0.0106; synergy score with cetuximab: -0.103; synergy score with BYL719: -0.19; activity call: inactive
MAPKAPK2 (MAPK activated protein kinase 2) #4 — synergy score with trametinib: -0.0376; synergy score with cetuximab: 0.098; synergy score with BYL719: -0.136; activity call: inactive
SF3B1 (splicing factor 3b subunit 1) #1 — synergy score with trametinib: -0.249; synergy score with cetuximab: 0.126; synergy score with BYL719: -0.0695; activity call: active
SF3B1 (splicing factor 3b subunit 1) #2 — synergy score with trametinib: -0.165; synergy score with cetuximab: -0.0193; synergy score with BYL719: -0.0619; activity call: inactive
SF3B1 (splicing factor 3b subunit 1) #3 — synergy score with trametinib: -0.108; synergy score with cetuximab: -0.0104; synergy score with BYL719: -0.144; activity call: inactive
SF3B1 (splicing factor 3b subunit 1) #4 — synergy score with trametinib: -0.233; synergy score with cetuximab: -0.15; synergy score with BYL719: -0.0787; activity call: inactive
CRIM1 (cysteine rich transmembrane BMP regulator 1) #1 — synergy score with trametinib: -0.0497; synergy score with cetuximab: -0.191; synergy score with BYL719: -0.333; activity call: inactive
CRIM1 (cysteine rich transmembrane BMP regulator 1) #2 — synergy score with trametinib: 0.175; synergy score with cetuximab: 0.0628; synergy score with BYL719: -0.06; activity call: active
CRIM1 (cysteine rich transmembrane BMP regulator 1) #3 — synergy score with trametinib: 0.265; synergy score with cetuximab: -0.0352; synergy score with BYL719: -0.143; activity call: active
CRIM1 (cysteine rich transmembrane BMP regulator 1) #4 — synergy score with trametinib: 0.273; synergy score with cetuximab: -0.0506; synergy score with BYL719: -0.2; activity call: active
